Publication PMC11910234
Results are given in words; binding and its absence hold for the method and conditions named. In cells and extracts the contact can be indirect. Some entries that bind do so weakly or less than the wild type.

Chains of the proteins cited; added tags and fusions are not shown.
UniProt Q14966: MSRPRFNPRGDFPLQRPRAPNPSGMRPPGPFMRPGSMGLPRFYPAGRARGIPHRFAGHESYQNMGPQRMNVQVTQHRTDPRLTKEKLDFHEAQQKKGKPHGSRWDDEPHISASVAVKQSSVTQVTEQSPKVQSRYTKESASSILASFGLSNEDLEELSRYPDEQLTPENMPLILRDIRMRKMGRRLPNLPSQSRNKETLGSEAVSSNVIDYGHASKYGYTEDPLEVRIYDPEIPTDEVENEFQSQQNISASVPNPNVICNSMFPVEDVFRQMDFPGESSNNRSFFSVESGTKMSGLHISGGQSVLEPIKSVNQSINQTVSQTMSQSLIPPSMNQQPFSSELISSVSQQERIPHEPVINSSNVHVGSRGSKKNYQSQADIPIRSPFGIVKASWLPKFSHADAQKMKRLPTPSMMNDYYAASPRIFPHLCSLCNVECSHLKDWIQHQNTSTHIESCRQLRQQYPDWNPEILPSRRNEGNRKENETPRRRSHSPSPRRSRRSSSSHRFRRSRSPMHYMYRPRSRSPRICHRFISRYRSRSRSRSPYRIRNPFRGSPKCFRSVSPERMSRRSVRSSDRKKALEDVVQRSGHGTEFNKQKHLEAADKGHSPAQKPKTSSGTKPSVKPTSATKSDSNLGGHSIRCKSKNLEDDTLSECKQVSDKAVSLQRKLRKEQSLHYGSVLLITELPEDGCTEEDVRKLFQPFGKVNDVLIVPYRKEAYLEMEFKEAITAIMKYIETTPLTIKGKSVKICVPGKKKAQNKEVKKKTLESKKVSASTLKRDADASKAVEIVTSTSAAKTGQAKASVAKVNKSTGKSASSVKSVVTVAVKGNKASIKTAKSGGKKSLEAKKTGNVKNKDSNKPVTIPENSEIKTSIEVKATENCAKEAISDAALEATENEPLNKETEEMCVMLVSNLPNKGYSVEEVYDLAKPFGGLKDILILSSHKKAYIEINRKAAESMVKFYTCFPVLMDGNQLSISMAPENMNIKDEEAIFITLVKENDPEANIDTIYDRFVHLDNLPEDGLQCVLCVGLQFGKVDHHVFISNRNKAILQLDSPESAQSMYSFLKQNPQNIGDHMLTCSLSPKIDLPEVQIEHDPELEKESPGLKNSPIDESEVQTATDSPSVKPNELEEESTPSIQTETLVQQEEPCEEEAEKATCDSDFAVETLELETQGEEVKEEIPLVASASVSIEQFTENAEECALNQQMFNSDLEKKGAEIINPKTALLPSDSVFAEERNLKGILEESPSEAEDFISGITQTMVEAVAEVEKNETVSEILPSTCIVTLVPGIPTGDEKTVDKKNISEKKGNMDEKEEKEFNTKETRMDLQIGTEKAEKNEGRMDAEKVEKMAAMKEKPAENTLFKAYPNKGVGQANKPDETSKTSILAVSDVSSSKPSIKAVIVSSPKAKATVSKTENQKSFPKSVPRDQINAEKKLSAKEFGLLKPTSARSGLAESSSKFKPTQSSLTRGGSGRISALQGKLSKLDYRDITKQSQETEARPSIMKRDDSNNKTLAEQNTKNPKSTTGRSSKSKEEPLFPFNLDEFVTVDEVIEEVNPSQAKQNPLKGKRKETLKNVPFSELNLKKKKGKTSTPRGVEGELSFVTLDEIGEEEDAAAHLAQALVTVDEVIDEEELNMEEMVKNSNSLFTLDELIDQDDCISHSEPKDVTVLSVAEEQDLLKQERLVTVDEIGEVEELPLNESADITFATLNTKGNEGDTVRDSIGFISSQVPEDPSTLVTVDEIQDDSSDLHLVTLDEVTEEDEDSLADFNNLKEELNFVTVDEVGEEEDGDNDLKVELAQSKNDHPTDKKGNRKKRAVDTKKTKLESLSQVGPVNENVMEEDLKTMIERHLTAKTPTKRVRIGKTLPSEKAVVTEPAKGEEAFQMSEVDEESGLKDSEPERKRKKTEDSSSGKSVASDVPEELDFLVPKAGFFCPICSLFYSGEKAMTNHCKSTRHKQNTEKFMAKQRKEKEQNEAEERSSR
UniProt Q99549: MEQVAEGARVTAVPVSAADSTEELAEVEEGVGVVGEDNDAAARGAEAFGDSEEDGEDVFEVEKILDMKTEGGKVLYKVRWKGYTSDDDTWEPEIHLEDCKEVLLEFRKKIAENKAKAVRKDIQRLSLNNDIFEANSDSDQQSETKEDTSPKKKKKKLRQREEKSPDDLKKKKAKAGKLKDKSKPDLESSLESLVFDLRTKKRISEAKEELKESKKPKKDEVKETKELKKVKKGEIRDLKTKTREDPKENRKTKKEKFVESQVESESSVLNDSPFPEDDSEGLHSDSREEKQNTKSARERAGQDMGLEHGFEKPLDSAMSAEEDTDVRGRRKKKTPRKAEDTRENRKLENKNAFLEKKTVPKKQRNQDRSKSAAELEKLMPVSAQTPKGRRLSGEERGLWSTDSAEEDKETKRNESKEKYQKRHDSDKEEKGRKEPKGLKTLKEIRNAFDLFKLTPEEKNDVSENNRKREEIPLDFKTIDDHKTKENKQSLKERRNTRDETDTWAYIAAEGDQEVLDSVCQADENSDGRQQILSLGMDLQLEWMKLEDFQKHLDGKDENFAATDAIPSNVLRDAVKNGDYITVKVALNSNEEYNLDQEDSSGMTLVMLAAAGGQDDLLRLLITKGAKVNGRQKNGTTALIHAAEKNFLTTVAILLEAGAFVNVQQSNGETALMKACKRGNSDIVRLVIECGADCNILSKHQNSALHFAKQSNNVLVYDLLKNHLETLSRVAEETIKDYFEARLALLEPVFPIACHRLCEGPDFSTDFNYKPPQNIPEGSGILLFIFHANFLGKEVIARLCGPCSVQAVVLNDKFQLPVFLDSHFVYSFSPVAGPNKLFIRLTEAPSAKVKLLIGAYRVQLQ
UniProt Q9UK61: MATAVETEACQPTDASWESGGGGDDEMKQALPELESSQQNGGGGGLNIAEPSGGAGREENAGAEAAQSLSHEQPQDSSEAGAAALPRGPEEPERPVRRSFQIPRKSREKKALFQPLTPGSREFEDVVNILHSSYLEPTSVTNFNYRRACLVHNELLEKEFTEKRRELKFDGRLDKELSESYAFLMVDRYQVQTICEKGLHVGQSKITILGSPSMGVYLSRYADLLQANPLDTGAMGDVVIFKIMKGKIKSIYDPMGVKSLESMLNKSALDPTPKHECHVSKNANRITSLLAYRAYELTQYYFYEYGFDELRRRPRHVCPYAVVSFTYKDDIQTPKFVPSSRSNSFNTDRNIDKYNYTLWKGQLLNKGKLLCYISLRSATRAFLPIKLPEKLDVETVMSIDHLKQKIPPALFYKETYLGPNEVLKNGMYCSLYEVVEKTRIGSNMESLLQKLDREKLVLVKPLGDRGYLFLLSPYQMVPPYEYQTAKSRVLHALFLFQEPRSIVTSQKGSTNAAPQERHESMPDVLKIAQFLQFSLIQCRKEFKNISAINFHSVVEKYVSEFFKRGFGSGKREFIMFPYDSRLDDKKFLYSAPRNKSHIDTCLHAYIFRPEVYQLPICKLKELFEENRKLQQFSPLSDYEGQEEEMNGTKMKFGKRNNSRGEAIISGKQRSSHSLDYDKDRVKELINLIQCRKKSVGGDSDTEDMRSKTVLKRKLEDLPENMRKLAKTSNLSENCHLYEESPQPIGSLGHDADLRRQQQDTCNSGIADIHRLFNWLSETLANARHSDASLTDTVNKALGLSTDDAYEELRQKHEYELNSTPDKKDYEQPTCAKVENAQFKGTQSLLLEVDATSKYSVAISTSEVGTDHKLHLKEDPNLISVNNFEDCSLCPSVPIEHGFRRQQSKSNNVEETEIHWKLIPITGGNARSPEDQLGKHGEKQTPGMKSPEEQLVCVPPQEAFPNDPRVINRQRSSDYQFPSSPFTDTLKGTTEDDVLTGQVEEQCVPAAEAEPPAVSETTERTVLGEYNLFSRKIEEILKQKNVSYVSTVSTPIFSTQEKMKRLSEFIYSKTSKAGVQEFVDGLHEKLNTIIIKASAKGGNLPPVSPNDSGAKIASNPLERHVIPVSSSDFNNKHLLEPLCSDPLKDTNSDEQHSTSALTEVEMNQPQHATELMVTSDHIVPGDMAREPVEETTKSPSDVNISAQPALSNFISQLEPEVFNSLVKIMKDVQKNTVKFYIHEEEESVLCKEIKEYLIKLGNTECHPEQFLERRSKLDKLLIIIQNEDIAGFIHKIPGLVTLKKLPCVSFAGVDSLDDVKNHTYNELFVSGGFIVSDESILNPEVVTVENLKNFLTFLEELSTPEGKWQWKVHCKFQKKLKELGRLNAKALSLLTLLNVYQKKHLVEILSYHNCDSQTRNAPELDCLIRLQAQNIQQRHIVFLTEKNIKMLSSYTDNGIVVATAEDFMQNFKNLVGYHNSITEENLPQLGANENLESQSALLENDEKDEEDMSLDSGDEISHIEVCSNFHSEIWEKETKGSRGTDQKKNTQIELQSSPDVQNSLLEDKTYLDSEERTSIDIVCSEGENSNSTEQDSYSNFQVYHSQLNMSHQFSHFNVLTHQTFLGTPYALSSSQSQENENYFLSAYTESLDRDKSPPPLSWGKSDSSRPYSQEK

Target: Zinc Finger Protein 638 (ZNF638) (human (endogenous in A172)) (UniProt Q14966)
Assay: co-IP; A172 cells treated with scramble or ZNF638 siRNA, lysed in RIPA lysis buffer with protease inhibitors; precleared with protein A/G agarose; precipitated with anti-ZNF638 antibody overnight, protein A/G agarose 2.5 hours; blotted with SETDB1, TASOR and MPHOSPH8 antibodies

Substance | binding
M-phase phosphoprotein 8 (MPP8) (from UniProt Q99549 1-860) | binds
transcription activation suppressor (TASOR) (from UniProt Q9UK61 1-1670) | binds
